The list does not hold the whole screen: it is rich in T/C values a quarter to a half above the control, in often repeated tests (any T/C) and in doses without a T/C. Further doses and runs are listed elsewhere. T/C: endpoint of the treated group in % of that of the vehicle group. Some entries give survivors of the animals treated and no T/C: the source files T/C as zero there, which appears to mark a toxic dose or a test without result, not a measured value. Some survivor counts are full or nearly so, which does not show that the dose was tolerated: survival well below the control is almost never listed, so the zero probably covers shortened survival too. Counts of survivors are from the toxicity check (mostly the fifth day) where no day follows; animals may have died later. Schedules are NCI's codes, taken here to give the interval after Q, in days (D) or hours (H), and the number of doses after X. Some entries hold several experiments; the values are given in rising order. Signs of the kind (2×) give the number of equal values in this list. For survival time, the PubChem record calls one and a half times the control and up active, and a quarter to a half above the control has no call in these data; cut-offs in other NCI protocols can differ.
Test system: BDF1 mice, B16 melanoma ip, median survival T/C
Experiment: NCI In Vivo Anticancer Drug Screen. Data for tumor model B16 Melanoma (intraperitoneal) in B6D2F1 (BDF1) mice
Conditions: T/C endpoint: median survival time, higher T/C = longer survival
Procedure: The antitumor activity of compounds was measured in mice bearing transplantable tumors. Survival or tumor size were measured and the results are expressed as the measurement made in the treated group (T) divided by the measurement made in the vehicle treated control group (C). The tumor model used in this assay is B16 Melanoma (intraperitoneal) in B6D2F1 (BDF1) mice

[1] = dose: 100.0 mg/kg/injection, schedule: Q01DX009 (ip), vehicle: Klucel (hydroxypropylcellulose) (HPC)
[2] = dose: 200.0 mg/kg/injection, schedule: Q01DX009 (ip), vehicle: Klucel (hydroxypropylcellulose) (HPC)
[3] = dose: 400.0 mg/kg/injection, schedule: Q01DX009 (ip), vehicle: Klucel (hydroxypropylcellulose) (HPC)
[4] = dose: 150.0 mg/kg/injection, schedule: Q01DX009 (ip), vehicle: saline with Tween-80
[5] = dose: 100.0 mg/kg/injection, schedule: Q01DX009 (ip), vehicle: saline
[6] = dose: 50.0 mg/kg/injection, schedule: Q01DX009 (ip), vehicle: saline
[7] = dose: 6.25 mg/kg/injection, schedule: Q01DX009 (ip), vehicle: Klucel (hydroxypropylcellulose) (HPC)
[8] = dose: 800.0 mg/kg/injection, schedule: Q04DX003 (ip), vehicle: water

Cn1c(=O)c2[nH]c(Cc3ccsc3)nc2n(C)c1=O
survivor count [1]: 10 of 10 | survivor count [2]: 10 of 10 | survivor count [3]: 3 of 10

Cc1cc(C)c(-c2c(C)cc(C)c(N)c2C)c(C)c1N
survivor count (dose: 150.0 mg/kg/injection, schedule: Q04DX003 (ip), vehicle: Klucel (hydroxypropylcellulose) (HPC)): 10 of 10 | survivor count (dose: 300.0 mg/kg/injection, schedule: Q04DX003 (ip), vehicle: Klucel (hydroxypropylcellulose) (HPC)): 7 of 10

COc1ccc2nc3cc(Cl)ccc3c(NCCO)c2c1
survivor count [4]: 5 of 6 | survivor count (dose: 300.0 mg/kg/injection, schedule: Q01DX009 (ip), vehicle: saline with Tween-80): 0 of 6

CC(N)C(O)c1cccc(O)c1 (stereo not drawn)
survivor count [5]: 5 of 10

CC1(C)OCC(C2CCC3(C)C4=CCC5C(C)(C)C(O)CCC5(C)C4CCC23C)CC(O)C1O (stereo not drawn)
survivor count (dose: 2.5 mg/kg/injection, schedule: Q01DX009 (ip), vehicle: Klucel (hydroxypropylcellulose) (HPC)): 10 of 10

C/C=C(/C)C(=O)O[C@H]1CCN2CC=C(COC(=O)[C@@](O)([C@H](C)OC)C(C)(C)O)[C@H]12
survivor count [6]: 6 of 6 | survivor count [5]: 5 of 6

OCC(F)(F)C(F)(F)C(F)(F)F
survivor count (dose: 600.0 mg/kg/injection, schedule: Q01DX009 (ip), vehicle: saline): 10 of 10

Cc1c2cc[n+](C)cc2c(C)c2c1[nH]c1ccc(O)cc12
T/C (dose: 0.13 mg/kg/injection, schedule: Q01DX009 (ip), vehicle: water): 125 % of control | survivor count (dose: 0.5 mg/kg/injection, schedule: Q01DX009 (ip), vehicle: water): 10 of 10 | survivor count (dose: 1.0 mg/kg/injection, schedule: Q01DX009 (ip), vehicle: water): 9 of 10 | survivor count (dose: 2.0 mg/kg/injection, schedule: Q01DX009 (ip), vehicle: water): 10 of 10

CCCCNC(=O)C1C=C2c3cccc4[nH]cc(c34)CC2N(C)C1 (stereo not drawn)
survivor count [7]: 10 of 10 | survivor count [1]: 1 of 10 | survivor count [2]: 2 of 10

CC(COCc1ccccc1)NCc1ccccc1 (stereo not drawn)
survivor count [1]: 8 of 10

CSc1nc2ccccc2s1
survivor count [2]: 6 of 10

COC1=C2CC(C)CC(OC)C(OC(C)=O)C(C)/C=C(\C)C(OC(N)=O)C(OC)/C=C\C=C(/C)C(=O)NC(=CC1=O)C2=O (stereo not drawn)
survivor count (dose: 12.5 mg/kg/injection, schedule: Q01DX005 (ip), vehicle: other): 0 of 6 | survivor count (dose: 25.0 mg/kg/injection, schedule: Q01DX005 (ip), vehicle: other): 0 of 6 | survivor count (dose: 50.0 mg/kg/injection, schedule: Q01DX005 (ip), vehicle: other): 0 of 6 | survivor count (dose: 100.0 mg/kg/injection, schedule: Q01DX005 (ip), vehicle: other): 0 of 6 | survivor count (dose: 200.0 mg/kg/injection, schedule: Q01DX005 (ip), vehicle: other): 0 of 6

CC1(C)OCC(CO)(Nc2nc(N3CC3)nc(N3CC3)n2)CO1
T/C (dose: 0.62 mg/kg/injection, schedule: Q01DX009 (ip), vehicle: saline): 106, 119, 121, 123 % of control | T/C (dose: 1.25 mg/kg/injection, schedule: Q01DX009 (ip), vehicle: saline): 114, 140, 162 % of control (2×) | T/C (dose: 2.5 mg/kg/injection, schedule: Q01DX009 (ip), vehicle: saline): 137, 138, 170, 194 % of control | survivor count (dose: 5.0 mg/kg/injection, schedule: Q01DX009 (ip), vehicle: saline): 9 of 10 and 10 of 10 (2×) | survivor count (dose: 10.0 mg/kg/injection, schedule: Q01DX009 (ip), vehicle: saline): 7 of 10 and 10 of 10

O=c1[nH]cnc2ccc(Cl)cc12
survivor count [4]: 3 of 6

CCCCCCCCCCCCOc1ccccn1
survivor count [1]: 10 of 10

Cc1cc(C(=O)NNCc2ccccc2)no1
survivor count (dose: 3.12 mg/kg/injection, schedule: Q01DX009 (ip), vehicle: Klucel (hydroxypropylcellulose) (HPC)): 10 of 10 | survivor count [7]: 10 of 10 | survivor count (dose: 12.5 mg/kg/injection, schedule: Q01DX009 (ip), vehicle: Klucel (hydroxypropylcellulose) (HPC)): 10 of 10 | survivor count (dose: 50.0 mg/kg/injection, schedule: Q01DX009 (ip), vehicle: Klucel (hydroxypropylcellulose) (HPC)): 10 of 10

CC(=O)OCCN1CC1
survivor count [6]: 0 of 10 | survivor count [5]: 0 of 10

CCCN1COC(OCC)C(C)(C)C1 (stereo not drawn)
survivor count (dose: 400.0 mg/kg/injection, schedule: Q01DX009 (ip), vehicle: saline with Tween-80): 0 of 10

O=c1c2ccccc2[nH]c(=S)n1C1CCCCC1
survivor count [3]: 10 of 10

COc1cc([C@@H]2c3cc4c(cc3[C@@H](OC3OC5COC(C)OC5C(O)C3O)[C@H]3COC(=O)[C@H]23)OCO4)cc(OC)c1O (stereo partly drawn)
survivor count (dose: 16.0 mg/kg/injection, schedule: Q01DX009 (ip), vehicle: Klucel (hydroxypropylcellulose) (HPC)): 6 of 6 | survivor count (dose: 20.0 mg/kg/injection, schedule: Q01DX009 (ip), vehicle: saline): 10 of 10 | survivor count (dose: 32.0 mg/kg/injection, schedule: Q01DX009 (ip), vehicle: Klucel (hydroxypropylcellulose) (HPC)): 6 of 6 | survivor count (dose: 40.0 mg/kg/injection, schedule: Q01DX009 (ip), vehicle: saline): 10 of 10

C1CNC2NCCNC2N1 (stereo not drawn)
survivor count [6]: 7 of 10 | survivor count [5]: 9 of 10 | survivor count (dose: 200.0 mg/kg/injection, schedule: Q01DX009 (ip), vehicle: saline): 0 of 10 and 3 of 10 | survivor count (dose: 400.0 mg/kg/injection, schedule: Q01DX009 (ip), vehicle: saline): 0 of 10

C[C@H](CN1CC(=O)NC(=O)C1)N1CC(=O)NC(=O)C1
T/C (dose: 25.0 mg/kg/injection, schedule: Q04DX003 (ip), vehicle: water): 137 % of control | survivor count (dose: 32.0 mg/kg/injection, schedule: Q01DX009 (ip), vehicle: saline): 10 of 10 | T/C (dose: 50.0 mg/kg/injection, schedule: Q04DX003 (ip), vehicle: water): 130 % of control | survivor count (dose: 64.0 mg/kg/injection, schedule: Q01DX009 (ip), vehicle: saline): 10 of 10 | T/C (dose: 64.0 mg/kg/injection, schedule: Q01DX009 (ip), vehicle: water): 125 % of control | T/C (dose: 100.0 mg/kg/injection, schedule: Q04DX003 (ip), vehicle: water): 127 % of control | T/C (dose: 200.0 mg/kg/injection, schedule: Q04DX003 (ip), vehicle: water): 142 % of control | survivor count (dose: 256.0 mg/kg/injection, schedule: Q01DX009 (ip), vehicle: water): 9 of 10 | survivor count (dose: 512.0 mg/kg/injection, schedule: Q01DX009 (ip), vehicle: water): 10 of 10 | T/C [8]: 130 % of control | survivor count [8]: 10 of 10

COC(=O)[C@@H]1c2cc3c(c(O)c2[C@@H](OC2OC(C)C(OC)C(C)(OC)C2OC)C[C@]1(C)O)C(=O)c1c(O)cc2c(c1C3=O)O[C@H]1O[C@]2(C)[C@H](O)[C@@H](N(C)C)[C@@H]1O (stereo partly drawn)
T/C (dose: 125.0 micrograms/kg/injection, schedule: Q01DX009 (ip), vehicle: other): 138 % of control | T/C (dose: 648.0 micrograms/kg/injection, schedule: Q04DX003 (ip), vehicle: lactic acid): 131 % of control | survivor count (dose: 1000.0 micrograms/kg/injection, schedule: Q01DX009 (ip), vehicle: other): 8 of 10 | survivor count (dose: 1800.0 micrograms/kg/injection, schedule: Q04DX003 (ip), vehicle: lactic acid): 10 of 10 | survivor count (dose: 2000.0 micrograms/kg/injection, schedule: Q01DX009 (ip), vehicle: other): 9 of 10 | survivor count (dose: 3000.0 micrograms/kg/injection, schedule: Q04DX003 (ip), vehicle: lactic acid): 9 of 10 and 10 of 10

CCCCCCCCCCCCCCOC(=O)Cl
survivor count [2]: 10 of 10

O=[N+]([O-])/C=C/C(Cl)(Cl)Cl
survivor count (dose: 25.0 mg/kg/injection, schedule: Q01DX009 (ip), vehicle: Klucel (hydroxypropylcellulose) (HPC)): 10 of 10

From PubChem BioAssay AID192 (DTP/NCI, 2004)
